The results in this text go back to article PMC8903684.

Experiment [1] has as its target T1, Transmembrane protein 43 (TMEM43), endogenous (human (endogenous in MIAPaCa-2 and SW1990)) (UniProt Q9BTV4).
T1 sequence: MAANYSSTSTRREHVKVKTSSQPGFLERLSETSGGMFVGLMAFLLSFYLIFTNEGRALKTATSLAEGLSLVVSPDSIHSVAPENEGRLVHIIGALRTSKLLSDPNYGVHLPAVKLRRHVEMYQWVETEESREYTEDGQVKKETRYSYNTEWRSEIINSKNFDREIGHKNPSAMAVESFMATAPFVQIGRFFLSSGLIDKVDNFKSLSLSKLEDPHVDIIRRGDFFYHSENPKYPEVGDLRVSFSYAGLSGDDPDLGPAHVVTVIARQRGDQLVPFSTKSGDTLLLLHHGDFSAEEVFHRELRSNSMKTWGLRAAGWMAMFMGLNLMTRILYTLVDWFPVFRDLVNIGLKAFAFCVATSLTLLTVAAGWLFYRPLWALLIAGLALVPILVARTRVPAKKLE
The experiment in a line: co-IP; endogenous proteins in SW1990 and MIAPaCa-2 lysates (RIPA lysis buffer); immunoprecipitated with anti-TMEM43 or anti-PRPF3 antibodies or IgG, 3 h at 4 °C, protein A/G magnetic beads overnight; western blot.

The target of experiment [2] is T2, Exogenous TMEM43 expressed in HEK293 cells (UniProt Q9BTV4).
T2 sequence: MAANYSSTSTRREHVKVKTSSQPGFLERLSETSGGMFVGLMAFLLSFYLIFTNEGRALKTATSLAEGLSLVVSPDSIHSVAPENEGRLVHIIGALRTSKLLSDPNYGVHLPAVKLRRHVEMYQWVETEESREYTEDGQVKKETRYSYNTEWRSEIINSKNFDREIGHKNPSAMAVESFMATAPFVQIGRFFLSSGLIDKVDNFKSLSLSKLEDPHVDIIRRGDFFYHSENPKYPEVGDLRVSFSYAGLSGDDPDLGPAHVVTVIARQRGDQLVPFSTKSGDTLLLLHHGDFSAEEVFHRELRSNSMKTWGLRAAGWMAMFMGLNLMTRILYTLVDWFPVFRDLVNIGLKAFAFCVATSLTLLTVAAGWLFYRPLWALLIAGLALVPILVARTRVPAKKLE
The experiment in a line: co-IP; exogenous TMEM43 and PRPF3 in HEK293 cells; IP/western blotting; anti-flag/HA magnetic beads. For orientation: A western blot detects proteins with antibodies after separation by electrophoresis.

These are yes or no findings as the source states them, for the method shown. In cells and extracts the contact can be indirect. Some results given as binding are weak or reduced against the parent protein; the word gives no strength.

B1: Pre-mRNA processing factor 3 (PRPF3), endogenous (protein, UniProt O43395 1-683)
chain: MALSKRELDELKPWIEKTVKRVLGFSEPTVVTAALNCVGKGMDKKKAADHLKPFLDDSTLRFVDKLFEAVEEGRSSRHSKSSSDRSRKRELKEVFGDDSEISKESSGVKKRRIPRFEEVEEEPEVIPGPPSESPGMLTKLQIKQMMEAATRQIEERKKQLSFISPPTPQPKTPSSSQPERLPIGNTIQPSQAATFMNDAIEKARKAAELQARIQAQLALKPGLIGNANMVGLANLHAMGIAPPKVELKDQTKPTPLILDEQGRTVDATGKEIELTHRMPTLKANIRAVKREQFKQQLKEKPSEDMESNTFFDPRVSIAPSQRQRRTFKFHDKGKFEKIAQRLRTKAQLEKLQAEISQAARKTGIHTSTRLALIAPKKELKEGDIPEIEWWDSYIIPNGFDLTEENPKREDYFGITNLVEHPAQLNPPVDNDTPVTLGVYLTKKEQKKLRRQTRREAQKELQEKVRLGLMPPPEPKVRISNLMRVLGTEAVQDPTKVEAHVRAQMAKRQKAHEEANAARKLTAEQRKVKKIKKLKEDISQGVHISVYRVRNLSNPAKKFKIEANAGQLYLTGVVVLHKDVNVVVVEGGPKAQKKFKRLMLHRIKWDEQTSNTKGDDDEESDEEAVKKTNKCVLVWEGTAKDRSFGEMKFKQCPTENMAREHFKKHGAEHYWDLALSESVLESTD
On to B1, for which the binding entry in experiment [1] is reported as “binds”.

B2: Exogenous PRPF3 expressed in HEK293 cells (protein, UniProt O43395 1-683)
chain: MALSKRELDELKPWIEKTVKRVLGFSEPTVVTAALNCVGKGMDKKKAADHLKPFLDDSTLRFVDKLFEAVEEGRSSRHSKSSSDRSRKRELKEVFGDDSEISKESSGVKKRRIPRFEEVEEEPEVIPGPPSESPGMLTKLQIKQMMEAATRQIEERKKQLSFISPPTPQPKTPSSSQPERLPIGNTIQPSQAATFMNDAIEKARKAAELQARIQAQLALKPGLIGNANMVGLANLHAMGIAPPKVELKDQTKPTPLILDEQGRTVDATGKEIELTHRMPTLKANIRAVKREQFKQQLKEKPSEDMESNTFFDPRVSIAPSQRQRRTFKFHDKGKFEKIAQRLRTKAQLEKLQAEISQAARKTGIHTSTRLALIAPKKELKEGDIPEIEWWDSYIIPNGFDLTEENPKREDYFGITNLVEHPAQLNPPVDNDTPVTLGVYLTKKEQKKLRRQTRREAQKELQEKVRLGLMPPPEPKVRISNLMRVLGTEAVQDPTKVEAHVRAQMAKRQKAHEEANAARKLTAEQRKVKKIKKLKEDISQGVHISVYRVRNLSNPAKKFKIEANAGQLYLTGVVVLHKDVNVVVVEGGPKAQKKFKRLMLHRIKWDEQTSNTKGDDDEESDEEAVKKTNKCVLVWEGTAKDRSFGEMKFKQCPTENMAREHFKKHGAEHYWDLALSESVLESTD
For the molecule B2, the binding result in experiment [2] is reported as “binds”.
